Laboratory results reported in patent US20050208512A1, “Determining the chemosensitivity of cells to cytotoxic agents” (The Ohio State University Research Foundation, priority 2003, published 2005).
For part of these data: At least one compound was matched to its structure with a doubt left. Some of these results come from one statement about several compounds together. Some compounds share one range, which may span the group rather than tell each member.

Key:
NCI/ADR-RES cells = experiment: SRB cytotoxicity assay in NCI/ADR-RES cells transfected with ABCB1 or mock siRNA; format: cell-based, human; conditions: result in words
Procedure: Human cancer cells were transfected with ABCB1, ABCB5 or mock siRNA. Drug activity was measured with the SRB assay. IC50 is the concentration that produced 50% inhibition of cell growth compared to controls. Results represent the mean of two or mean±SD of at least three independent experiments.
We next compared growth-inhibitory IC50 values of siRNA-treated to that of mock-treated cells using a sulforhodamine B (SRB) cell proliferation assay.
Cell lines, obtained from Division of Cancer Treatment and Diagnosis at NCI, were cultured in RPMI 1640 containing 10% heat-inactivated fetal calf serum in a 5% CO2 incubator at 37° C. Transfection was performed with TransMessenger Transfection Reagent (QIAGEN). To down-regulate ABCB1 or ABCB5, cancer cells were transfected with 0.3 or 0.6 μM siRNA. For RNA extraction, cells were harvested 48 hours after transfection.
(§1) Cytotoxicity assay. 5FU, Camptothecin, and Mitoxathone were obtained from Sigma. The other compounds were from Developmental Therapeutics Program at NCI. […] Anticancer drugs were added in a dilution series in 6 replicated wells. […] After air-drying and re-solubilization of the protein-bound dye in 10 mM Tris-HCl (pH 8.0), absorbance was read by a micro-plate reader at 570 nm. To determine the IC50 values, the absorbance of control cells without drug was set at 1. […]

SK-MEL-28 cells = experiment: SRB cytotoxicity assay in SK-MEL-28 cells transfected with ABCB5 or mock siRNA; format: cell-based, human; conditions: mock vs ABCB5 siRNA
Procedure: Human cancer cells were transfected with ABCB1, ABCB5 or mock siRNA. Drug activity was measured with the SRB assay. […] Results represent the mean of two or mean±SD of at least three independent experiments.
To identify suitable ABCB5 domains for siRNA-mediated gene silencing, siRNA duplexes against three target domains were synthesized and transfected into SK-MEL-28 cells.
Transfection was performed with TransMessenger Transfection Reagent (QIAGEN). To down-regulate ABCB1 or ABCB5, cancer cells were transfected with 0.3 or 0.6 μM siRNA. For RNA extraction, cells were harvested 48 hours after transfection.
as §1, with “wells. After 4 days, incubation was terminated by replacing the medium with 100 μl 10% trichloroacetic acid (Sigma, St. Louis, Mo.) in 1×PBS, followed by incubation at 4° C. for at least 1 hour. Subsequently, the plates were washed with water and air-dried.” for “wells.”

COC1=C2C[C@@H](C)C[C@H](OC)[C@H](O)[C@@H](C)/C=C(\C)[C@H](OC(N)=O)[C@@H](OC)/C=C\C=C(/C)C(=O)NC(=CC1=O)C2=O [Geldanamycin, geldanamycin]
effect of ABCB1 siRNA on chemosensitivity to the drug (NCI/ADR-RES cells): Enhanced chemosensitivity

O=c1[nH]cc(F)c(=O)[nH]1 [5FU, fluorouracil]
Fold reversal (SK-MEL-28 cells): 2-3

CC[C@@]1(O)C(=O)OCc2c1cc1n(c2=O)Cc2cc3ccccc3nc2-1 [Camptothecin]
Fold reversal (SK-MEL-28 cells; listed as camptothecin): 2-3
